Reference: publication PMC5494137
No constants are given. Whether binding was seen depends on the method and setting. In cells and extracts the contact can be indirect.

The chains behind the UniProt entries cited, without tags or fusion partners. Residues count along the entry.
UniProt Q9UBN7, residues 1-503: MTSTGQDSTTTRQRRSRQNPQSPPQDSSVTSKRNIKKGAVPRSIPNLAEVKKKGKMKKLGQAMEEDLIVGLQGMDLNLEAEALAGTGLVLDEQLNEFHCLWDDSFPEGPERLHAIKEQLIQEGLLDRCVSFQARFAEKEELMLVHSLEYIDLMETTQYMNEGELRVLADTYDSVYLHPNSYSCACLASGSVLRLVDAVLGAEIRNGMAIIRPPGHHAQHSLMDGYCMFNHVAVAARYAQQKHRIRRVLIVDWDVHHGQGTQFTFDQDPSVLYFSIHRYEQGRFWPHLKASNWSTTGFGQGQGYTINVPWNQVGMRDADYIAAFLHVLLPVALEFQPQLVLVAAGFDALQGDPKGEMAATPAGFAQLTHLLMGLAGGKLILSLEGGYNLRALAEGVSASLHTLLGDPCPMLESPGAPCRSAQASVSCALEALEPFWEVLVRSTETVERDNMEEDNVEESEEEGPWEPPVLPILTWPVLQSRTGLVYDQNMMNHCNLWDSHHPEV
UniProt P69566: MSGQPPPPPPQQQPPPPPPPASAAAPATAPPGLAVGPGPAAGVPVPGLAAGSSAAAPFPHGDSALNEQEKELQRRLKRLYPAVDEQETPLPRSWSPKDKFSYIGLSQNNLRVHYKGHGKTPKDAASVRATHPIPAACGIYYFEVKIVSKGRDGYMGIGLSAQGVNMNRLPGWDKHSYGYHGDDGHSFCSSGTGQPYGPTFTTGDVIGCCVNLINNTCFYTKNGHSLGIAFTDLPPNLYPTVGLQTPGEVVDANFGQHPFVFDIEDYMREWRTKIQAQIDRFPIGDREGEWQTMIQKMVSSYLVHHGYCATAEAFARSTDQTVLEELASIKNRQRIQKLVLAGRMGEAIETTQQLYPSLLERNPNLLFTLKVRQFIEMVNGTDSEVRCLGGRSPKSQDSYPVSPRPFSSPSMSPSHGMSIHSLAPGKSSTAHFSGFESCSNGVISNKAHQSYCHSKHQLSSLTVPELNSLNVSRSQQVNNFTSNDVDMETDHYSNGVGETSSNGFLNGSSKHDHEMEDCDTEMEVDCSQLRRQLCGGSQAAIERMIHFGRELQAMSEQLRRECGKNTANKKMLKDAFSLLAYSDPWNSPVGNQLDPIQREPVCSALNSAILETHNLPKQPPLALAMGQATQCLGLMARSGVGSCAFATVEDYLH

Molecular target: HA-HDAC6-1-503-FLAG (pcDNA-HA-HDAC6-1-503-FLAG) (UniProt Q9UBN7)
Assay: co-IP; FLAG antibody immunoprecipitation of HDAC6 constructs from whole cell extracts of transfected HDAC6 knockout MEFs; blot for endogenous RanBPM; 0.25% NP-40, 100 mM KCl lysis buffer, overnight at 4 °C

RanBPM, endogenous in mouse embryonic fibroblasts (from UniProt P69566 1-653)
binding: no binding
